The other results are listed elsewhere or left out. These are further read-outs of the screen, such as a control signal, another cell line or another target. No call is given for them. The list favours compounds with an active or inconclusive main result. The note in brackets gives the kind of curve behind each potency; many fits are weak.

The AC50 is the midpoint of the concentration-response curve, whichever way the signal moves.

The assay in a line: qHTS Assay to Find Inhibitors of Chronic Active B-Cell Receptor Signaling. As to conditions: ABC-DLBCL IkBa-CBG/CBR reporter, luminescence ratio (green luciferase fused to IkBa over red control in TMD8 lymphoma cells), 4 h; measured here: CBR red luminescence, cell number. The gist of the method: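 TMD8 ABC-DLBCL cells carrying doxycycline-inducible green luciferase fused to IkappaBalpha plus unfused red luciferase were exposed to compounds (up to 46 uM) for 4 hrs at 37C. Activity came from the overlap-corrected green/red luminescence ratio.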
In general terms: In qHTS, concentration-response curves come from the screen itself.
For `Cc1ccc(C)c(-n2c(-c3csc(C)c3C)n[nH]c2=S)c1`, the AC50 is 29.1 µM [rising, single point]. To `Cc1ccc(N(Cc2cc3ccccc3[nH]c2=O)C(=O)c2ccco2)c(C)c1` belongs 0.058 µM [falling, full curve, poor fit]. On to `Cc1ccccc1OCC(=O)N/N=C1\CCOc2c(C)cccc21`, for which the AC50 was 0.562 µM [rising, full curve, poor fit]. For `O=C(CSCC(=O)N1CCCCC1)Nc1nc(-c2ccccc2)c(-c2ccccc2)s1`, the half-maximal activity concentration (AC50) was 20.6 µM [falling, partial curve, poor fit].

For the compound `CNC(=O)CSc1nnc(-c2cccs2)o1`, the AC50 was 29.1 µM [rising, partial curve, poor fit]. With `CCOC(=O)c1ccc(N2C(=O)CC(Nc3ccc(O)cc3)C2=O)cc1` (centres undefined) the figure was 35.5 µM [falling, single point]; with `CCCC(=O)N(c1ccc2oc(C)c(C(C)=O)c2c1)S(=O)(=O)c1ccc(C)cc1`, 3.98 µM [rising, partial curve, poor fit]; with `CSc1ccc(NC(=O)N2CCN(c3nc4ccccc4s3)CC2)cc1`, 0.13 µM [rising, full curve, poor fit].

Regarding `CCCc1nc2nc(C)c(NS(=O)(=O)c3ccc(C4CCCCC4)cc3)c(=O)n2[nH]1`, the AC50 is 3.98 µM [rising, partial curve, poor fit]. `O=C(N/N=C/c1ccc(O)cc1O)/C(=C/c1ccccc1)CCO`: the AC50 is 2.91 µM [falling, full curve]. To `COc1ccc(/C=C2\SC(=S)N(CCC(=O)Nc3ccc(O)cc3)C2=O)cc1` belongs 10 µM [falling, partial curve]; to `Cc1cc(NC(=O)c2ccccc2)nc2c1c(=O)oc1ccccc12`, 6.31 µM [falling, partial curve]; to `COc1ccc(NC(=O)C(=O)NNC(=O)c2cccs2)cc1`, 14.6 µM [falling, partial curve]. As to `CC(=O)c1sc2nsc(SCCN3CCCCC3)c2c1N`, the AC50 was 17.8 µM [falling, single point]. Take `COc1ccc(Nc2nnc(-c3ccc(C(N)=O)cc3)c3ccccc23)cc1`: the AC50 was 15.8 µM [falling, partial curve, poor fit]. With `COc1cc(OC)cc(C(=O)NNC(=O)c2cc3ccccc3cc2O)c1` the figure was 0.501 µM [falling, full curve, poor fit]; with `CCn1c(=O)c2cc(C(=O)N(C)c3ccc(OC)cc3OC)sc2c2ccccc21`, 11.2 µM [falling, single point]; with `O=C(N/N=C/c1ccc(N2CCOCC2)s1)c1ccccc1Br`, 5.62 µM [falling, full curve]. As to `Oc1c(C=Nc2ccccc2Cl)[nH]c2ccccc12`, the half-maximal activity concentration (AC50) is 14.1 µM [falling, single point]. With `O=C(N/N=C/C=C\c1ccccc1)c1cnccn1` the figure was 2 µM [falling, full curve, poor fit]. To `CN1C(C(=O)Nc2ccccn2)=C(O)c2sccc2S1(=O)=O` belongs 35.5 µM [falling, single point]; to `COc1cc(OC)c(C(=O)Nc2ccccc2-c2ccccc2)cc1OC`, 29.1 µM [falling, single point]; to `CCOc1ccccc1C(=O)N[C@H](C(=O)OCc1csc(CC(=O)Nc2ccc(C)cc2)n1)C(C)C`, 29.1 µM [falling, single point]. Consider `COc1ccc(CNC(=O)C(c2ccco2)N(Cc2cccs2)C(=O)Cc2cccs2)cc1` (centres undefined), for which the concentration at half-maximal activity (AC50) was 0.82 µM [rising, full curve, poor fit].

Regarding `COc1ccc(-c2[nH]ncc2N=Nc2cc(C)cc(C)c2)cc1`, the AC50 was 12.6 µM [rising, partial curve].

In the case of `COc1ccc(C2=NN(C(=O)c3cccs3)C(O)(C(F)(F)F)C2)cc1` (centres undefined), the AC50 was 15.8 µM [falling, single point]. With `CCOC(=O)c1cccc(OC(=O)CCNC(=O)c2ccc(Cl)cc2)c1` the figure was 25.9 µM [rising, single point]. To `O=C(CN1C(=O)S/C(=C/c2ccncc2)C1=O)N1CCOCC1` belongs 20.6 µM [falling, single point]. Take `O=C(CC1NC(=O)NC1=O)Nc1ccc(Cl)cc1` (centres undefined): the AC50 was 20.6 µM [falling, partial curve, poor fit]. For the compound `O=C(COC(=O)c1cc(S(=O)(=O)N2CCCC2)ccc1O)Nc1ccccc1Br`, the concentration at half-maximal activity (AC50) was 29.1 µM [rising, partial curve, poor fit]. To `COc1ccc(-c2nc(-c3ccccn3)no2)cc1` belongs 1.12 µM [falling, full curve].

In the case of `COc1cc(SC)ccc1C(=O)Nc1c(Cl)cncc1Cl`, the concentration at half-maximal activity (AC50) is 35.5 µM [falling, single point].

With `Cc1cc(C(=O)Cn2cnc3cc(F)ccc3c2=O)c(C)n1C1CC1`, the AC50 was 9.2 µM [rising, partial curve]. With `Cc1nonc1C(=O)N/N=C/c1ccc(O)cc1` the figure was 14.6 µM [falling, partial curve]. For `Cc1cc(N/N=C\c2ccccc2)nc(-c2ccccc2O)n1`, the AC50 is 13 µM [falling, partial curve, poor fit].

Take `CCC1=C(OC(=O)N(CC)CC)N2C(=O)OC(=NCCc3c[nH]c4ccccc34)[C@]2(Cc2ccccc2)[C@H]2C1=CC[C@H]1C(=O)NC(=O)[C@H]12`: the concentration at half-maximal activity (AC50) is 20 µM [falling, partial curve, poor fit].

Turning to `CC(C)c1cc(C(C)C)n2nc(N)nc2n1`, the concentration at half-maximal activity (AC50) was 0.794 µM [rising, full curve]. To `COC(=O)c1ccc(OCC(=O)NCCC2=CCCCC2)c(OC)c1` belongs 0.731 µM [rising, partial curve, poor fit]. With `CCN(CC)c1ccc(NC(=O)CSc2nc3nc(C)cc(C)c3c(=O)[nH]2)cc1` the figure was 4.61 µM [falling, partial curve, poor fit]; with `COc1cccc(NC(=O)CN(C)C(=O)CSc2ccc3c(c2)OCCO3)c1`, 29.1 µM [falling, single point]; with `COc1ccc(NC(=O)N(C)C[C@H]2Oc3c(NC(=O)Nc4ccc(C(F)(F)F)cc4)cccc3C(=O)N([C@H](C)CO)C[C@@H]2C)cc1`, 18.4 µM [falling, single point]. With `Cc1cc(CNC(=O)COc2ccccc2F)c2ccccc2n1`, the AC50 was 31.6 µM [falling, single point].

Turning to `CCN(C(=O)CSc1nncn1-c1ccccc1)c1c(N)n(Cc2ccccc2)c(=O)[nH]c1=O`, the AC50 was 32.6 µM [rising, partial curve, poor fit]. With `O=c1[nH]cc(COCC(F)CCl)c(=O)[nH]1` (centres undefined) the figure was 7.94 µM [rising, partial curve, poor fit]; with `C=CCn1cc(/C=N/Nc2nc3ccccc3[nH]2)c2ccccc21`, 29.1 µM [falling, single point]. Take `Cc1nnc(N/N=C\c2ccc(-c3ccccc3[N+](=O)[O-])o2)n1N`: the concentration at half-maximal activity (AC50) is 23.1 µM [falling, single point]. Turning to `Cc1ccccc1C(=O)Nc1ccccc1Sc1ccccc1`, the AC50 was 20.6 µM [rising, single point].

As to `Cc1nc(SC2CCOC2=O)c2c(C)c(C)sc2n1` (centres undefined), the half-maximal activity concentration (AC50) was 22.4 µM [rising, partial curve, poor fit]. For the compound `CN(C)c1ccc2nc3ccc(=[N+](C)C)cc-3sc2c1`, the AC50 was 7.08 µM [rising, partial curve, poor fit]. With `COc1ccccc1NC(=O)CNC(=O)c1ccc(Br)o1`, the concentration at half-maximal activity (AC50) was 11.2 µM [falling, partial curve]. For the compound `Cc1c(C(=O)N2CC(C)OC(C)C2)oc2ccccc12` (centres undefined), the AC50 was 29.1 µM [rising, single point].

Take `COc1cc(/C=C/C(=O)N2CCC=CC2=O)cc(OC)c1OC`: the AC50 was 8.2 µM [falling, partial curve].

As to `COc1ccc(/C=C2\SC(=O)N(CCNC(=O)Cn3[nH]c(=O)c4ccccc4c3=O)C2=O)cc1`, the AC50 was 18.4 µM [falling, partial curve]. Regarding `CC(Oc1ccc(C(=O)NCCc2ccccc2)cc1)C(=O)O` (centres undefined), the AC50 is 29.1 µM [falling, single point]. As to `CC[C@H](C)[C@@H](CN[C@H](C)CNC)NCCC(c1ccccc1)c1ccccc1`, the concentration at half-maximal activity (AC50) is 14.1 µM [falling, single point]. To `Cc1cccc(-c2noc(CCC(=O)NCC3CCCO3)n2)c1` (centres undefined) belongs 0.116 µM [rising, full curve, poor fit]; to `O=C(NCCc1cccc(C(F)(F)F)c1)C1CCC(=O)N(Cc2ccc(Cl)cc2)C1` (centres undefined), 25.1 µM [falling, single point]. Regarding `CC(C)(C)NC(=O)NC(=O)COC(=O)CNC(=O)c1cc(Cl)cc([N+](=O)[O-])c1`, the AC50 is 35.5 µM [rising, single point]. To `CN(CC(=O)Nc1ccc(F)cc1)C(=O)c1ccc(OCc2cn3ccccc3n2)cc1` belongs 23.1 µM [falling, single point]; to `O=C(Nc1ccccc1Cl)OC1CCCCC1`, 0.447 µM [rising, full curve].

In the case of `C[C@@H]1CN([C@@H](C)CO)C(=O)c2cc(NC(=O)CCN3CCOCC3)ccc2O[C@@H]1CN(C)C(=O)Nc1ccccc1`, the concentration at half-maximal activity (AC50) is 10.3 µM [rising, partial curve, poor fit]. With `CCN(CC)C(=S)SCC(=O)Nc1ccc(F)cc1` the figure was 7.08 µM [falling, partial curve, poor fit]; with `CCN(CC(=O)Nc1ccc2c(c1)OCCO2)C(=O)CCOc1ccccc1`, 8.2 µM [falling, partial curve]. To `COc1ccc(CCNc2ncnc3c2c(-c2ccccc2)cn3-c2ccc(F)cc2)cc1OC` belongs 2.24 µM [rising, partial curve, poor fit].

Values taken from PubChem BioAssay AID493014 (National Center for Advancing Translational Sciences (NCATS), 2011).
